According to patent EP0614662A1, “Use of (2E,4E,6E,10E)-3,7,11,15-tetramethyl-2,4,6,10,14-hexadecapentaenoic acid for the treatment of leukaemia” (Eisai Co., Ltd., priority 1993, dated 1994):
The amount applied is not stated for every result.

Tested on: HL-60
Assay: Cytotoxicity on HL-60 (viable cell count, Trypan Blue)
Format: cell-based
Details: for LD₅₀/ID₅₀: HL-60, margin of safety
Description: After the completion of the incubation, the total cell count was calculated with a Burker-Turk calculation board and the viable cell count was calculated by regarding the cells stained with Trypan Blue as the dead ones. Thus ID₅₀ and LD₅₀ were determined. Further, a cytospin slide was prepared and the morphology of the cells was observed by the May-Giemsa staining method.

| SMILES | LD₅₀/ID₅₀ | margin of safety expressed in the LD₅₀/ID₅₀ ratio, times as high as that of ATRA (HL-60, relative to ATRA) |
| --- | --- | --- |
| CC(C)=CCC/C(C)=C/CC/C(C)=C/C=C/C(C)=C/C(=O)O [compound (I), (2E,4E,6E,10E)-3,7,11,15-tetramethyl-2,4,6,10,14-hexadecapentaenoic acid] | 3.80 | about 2.1 times |
| CC1=C(/C=C/C(C)=C/C=C/C(C)=C/C(=O)O)C(C)(C)CCC1 [ATRA, all-trans-retinoic acid, reference compound] | 1.79 |  |
